US5550212A (The Administrators of the Tulane Educational Fund, priority 1993, dated 1996)

Tests used:
[1] = general procedure: Boc solid-phase peptide synthesis; BHA resin; DIC; BOP; preformed HOBt esters for Boc-Asn-OH and Boc-Gln-OH; conditions: whole synthesis, scale 0.11 mmole
[2] = general procedure: Boc solid-phase peptide synthesis; MBHA or BHA resin (Bachem); Boc-Agm resin (California Peptide Res. Inc.); DIC; BOP; preformed HOBt esters for Boc-Asn-OH and Boc-Gln-OH; conditions: whole synthesis, scale of the general procedure 0.11 mmole
[3] = general procedure: Boc solid-phase peptide synthesis; MBHA resin; DIC; BOP; preformed HOBt esters for Boc-Asn-OH and Boc-Gln-OH; conditions: whole synthesis, scale 0.11 mmole

Q: What does the source list for “PEPTIDE1{[Ibu].H.[dR].D.A.I.[Tpi].T.N.S.Y.R.K.V.L.[Abu].Q.L.S.A.R.K.L.L.Q.D.I.[Nle].S.R.[am]}$$$$V2.0”?
A: crude mass [1]: approximately 150 mg; final HPLC purity ([2]; analytical HPLC, W-Porex C18, monitored at 220 and 280 nm): >95%

Q: With “PEPTIDE1{[Nac].Y.[dR].D.A.I.[Phe(pCl)].T.N.S.Y.R.K.V.L.[Abu].Q.L.S.A.R.K.L.L.Q.D.I.[Nle].S.R.[am]}$$$$V2.0” as the substance, how does the crude mass [3] read?
A: 145 mg

Q: What about the “final HPLC purity” value ([2]; 220 and 280 nm) of the same substance?
A: >95%

HELM strings list residues between dots; [ac] is acetyl, [am] amide, other brackets name non-standard units.
